Laboratory results from the supplement of paper PMC10849652.
The other results are listed elsewhere or left out.

Amino acid sequences for entries named in this document (tags omitted). A change or cut given only in a name is not applied to a line headed by its entry.
UniProt Q9UKB3: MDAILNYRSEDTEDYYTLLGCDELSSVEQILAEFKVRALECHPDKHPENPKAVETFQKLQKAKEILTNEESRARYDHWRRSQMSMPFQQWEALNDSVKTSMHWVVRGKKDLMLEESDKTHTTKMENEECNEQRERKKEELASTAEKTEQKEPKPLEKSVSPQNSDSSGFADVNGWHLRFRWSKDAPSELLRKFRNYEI
UniProt Q9Y222: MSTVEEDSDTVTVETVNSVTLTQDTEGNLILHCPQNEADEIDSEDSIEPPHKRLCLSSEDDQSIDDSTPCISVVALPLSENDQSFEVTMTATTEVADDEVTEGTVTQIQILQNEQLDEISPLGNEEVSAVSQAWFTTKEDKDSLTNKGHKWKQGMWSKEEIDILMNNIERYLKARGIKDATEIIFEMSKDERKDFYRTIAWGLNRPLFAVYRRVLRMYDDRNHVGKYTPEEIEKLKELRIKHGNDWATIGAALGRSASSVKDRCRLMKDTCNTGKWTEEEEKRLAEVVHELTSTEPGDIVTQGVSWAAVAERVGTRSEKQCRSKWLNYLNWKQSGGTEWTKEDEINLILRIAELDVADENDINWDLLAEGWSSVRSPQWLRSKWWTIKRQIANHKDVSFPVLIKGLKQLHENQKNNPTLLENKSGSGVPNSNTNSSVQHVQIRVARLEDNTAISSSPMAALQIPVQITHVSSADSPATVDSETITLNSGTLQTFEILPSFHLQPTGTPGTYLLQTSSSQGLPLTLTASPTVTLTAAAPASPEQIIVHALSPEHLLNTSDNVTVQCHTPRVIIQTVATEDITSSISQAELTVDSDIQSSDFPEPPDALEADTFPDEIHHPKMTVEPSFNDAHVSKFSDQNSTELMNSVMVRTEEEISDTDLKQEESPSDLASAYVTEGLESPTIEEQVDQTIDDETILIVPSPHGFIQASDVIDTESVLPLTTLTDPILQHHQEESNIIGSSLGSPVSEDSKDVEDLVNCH
UniProt Q8IYB7: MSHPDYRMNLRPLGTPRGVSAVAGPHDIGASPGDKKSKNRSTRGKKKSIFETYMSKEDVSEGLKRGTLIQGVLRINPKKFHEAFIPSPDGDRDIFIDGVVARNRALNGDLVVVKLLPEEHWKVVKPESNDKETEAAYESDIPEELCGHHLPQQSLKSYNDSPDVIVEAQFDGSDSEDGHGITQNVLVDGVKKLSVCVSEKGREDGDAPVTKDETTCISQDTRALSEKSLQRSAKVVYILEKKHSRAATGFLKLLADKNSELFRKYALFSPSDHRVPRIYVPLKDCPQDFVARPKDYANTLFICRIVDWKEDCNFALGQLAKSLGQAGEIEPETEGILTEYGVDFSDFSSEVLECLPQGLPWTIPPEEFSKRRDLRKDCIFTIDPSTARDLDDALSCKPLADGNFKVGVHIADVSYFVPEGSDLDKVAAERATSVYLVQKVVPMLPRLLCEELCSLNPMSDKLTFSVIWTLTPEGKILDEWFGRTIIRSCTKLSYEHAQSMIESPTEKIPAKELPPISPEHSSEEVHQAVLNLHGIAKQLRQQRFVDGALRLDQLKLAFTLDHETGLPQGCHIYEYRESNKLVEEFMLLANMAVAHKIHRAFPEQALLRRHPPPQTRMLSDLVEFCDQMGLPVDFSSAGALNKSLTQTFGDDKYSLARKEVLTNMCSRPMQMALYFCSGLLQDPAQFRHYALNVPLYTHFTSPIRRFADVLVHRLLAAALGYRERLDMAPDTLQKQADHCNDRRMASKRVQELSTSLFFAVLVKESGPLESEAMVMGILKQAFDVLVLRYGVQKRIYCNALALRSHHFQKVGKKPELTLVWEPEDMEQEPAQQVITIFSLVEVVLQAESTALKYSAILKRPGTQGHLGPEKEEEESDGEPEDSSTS
UniProt Q86YN1: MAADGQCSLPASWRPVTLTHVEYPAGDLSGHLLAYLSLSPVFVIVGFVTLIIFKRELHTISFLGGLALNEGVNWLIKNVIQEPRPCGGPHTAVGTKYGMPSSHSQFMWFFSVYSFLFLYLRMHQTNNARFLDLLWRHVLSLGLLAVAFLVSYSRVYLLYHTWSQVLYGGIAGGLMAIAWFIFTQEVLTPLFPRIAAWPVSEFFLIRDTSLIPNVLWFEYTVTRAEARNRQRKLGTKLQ
UniProt Q8IVF4: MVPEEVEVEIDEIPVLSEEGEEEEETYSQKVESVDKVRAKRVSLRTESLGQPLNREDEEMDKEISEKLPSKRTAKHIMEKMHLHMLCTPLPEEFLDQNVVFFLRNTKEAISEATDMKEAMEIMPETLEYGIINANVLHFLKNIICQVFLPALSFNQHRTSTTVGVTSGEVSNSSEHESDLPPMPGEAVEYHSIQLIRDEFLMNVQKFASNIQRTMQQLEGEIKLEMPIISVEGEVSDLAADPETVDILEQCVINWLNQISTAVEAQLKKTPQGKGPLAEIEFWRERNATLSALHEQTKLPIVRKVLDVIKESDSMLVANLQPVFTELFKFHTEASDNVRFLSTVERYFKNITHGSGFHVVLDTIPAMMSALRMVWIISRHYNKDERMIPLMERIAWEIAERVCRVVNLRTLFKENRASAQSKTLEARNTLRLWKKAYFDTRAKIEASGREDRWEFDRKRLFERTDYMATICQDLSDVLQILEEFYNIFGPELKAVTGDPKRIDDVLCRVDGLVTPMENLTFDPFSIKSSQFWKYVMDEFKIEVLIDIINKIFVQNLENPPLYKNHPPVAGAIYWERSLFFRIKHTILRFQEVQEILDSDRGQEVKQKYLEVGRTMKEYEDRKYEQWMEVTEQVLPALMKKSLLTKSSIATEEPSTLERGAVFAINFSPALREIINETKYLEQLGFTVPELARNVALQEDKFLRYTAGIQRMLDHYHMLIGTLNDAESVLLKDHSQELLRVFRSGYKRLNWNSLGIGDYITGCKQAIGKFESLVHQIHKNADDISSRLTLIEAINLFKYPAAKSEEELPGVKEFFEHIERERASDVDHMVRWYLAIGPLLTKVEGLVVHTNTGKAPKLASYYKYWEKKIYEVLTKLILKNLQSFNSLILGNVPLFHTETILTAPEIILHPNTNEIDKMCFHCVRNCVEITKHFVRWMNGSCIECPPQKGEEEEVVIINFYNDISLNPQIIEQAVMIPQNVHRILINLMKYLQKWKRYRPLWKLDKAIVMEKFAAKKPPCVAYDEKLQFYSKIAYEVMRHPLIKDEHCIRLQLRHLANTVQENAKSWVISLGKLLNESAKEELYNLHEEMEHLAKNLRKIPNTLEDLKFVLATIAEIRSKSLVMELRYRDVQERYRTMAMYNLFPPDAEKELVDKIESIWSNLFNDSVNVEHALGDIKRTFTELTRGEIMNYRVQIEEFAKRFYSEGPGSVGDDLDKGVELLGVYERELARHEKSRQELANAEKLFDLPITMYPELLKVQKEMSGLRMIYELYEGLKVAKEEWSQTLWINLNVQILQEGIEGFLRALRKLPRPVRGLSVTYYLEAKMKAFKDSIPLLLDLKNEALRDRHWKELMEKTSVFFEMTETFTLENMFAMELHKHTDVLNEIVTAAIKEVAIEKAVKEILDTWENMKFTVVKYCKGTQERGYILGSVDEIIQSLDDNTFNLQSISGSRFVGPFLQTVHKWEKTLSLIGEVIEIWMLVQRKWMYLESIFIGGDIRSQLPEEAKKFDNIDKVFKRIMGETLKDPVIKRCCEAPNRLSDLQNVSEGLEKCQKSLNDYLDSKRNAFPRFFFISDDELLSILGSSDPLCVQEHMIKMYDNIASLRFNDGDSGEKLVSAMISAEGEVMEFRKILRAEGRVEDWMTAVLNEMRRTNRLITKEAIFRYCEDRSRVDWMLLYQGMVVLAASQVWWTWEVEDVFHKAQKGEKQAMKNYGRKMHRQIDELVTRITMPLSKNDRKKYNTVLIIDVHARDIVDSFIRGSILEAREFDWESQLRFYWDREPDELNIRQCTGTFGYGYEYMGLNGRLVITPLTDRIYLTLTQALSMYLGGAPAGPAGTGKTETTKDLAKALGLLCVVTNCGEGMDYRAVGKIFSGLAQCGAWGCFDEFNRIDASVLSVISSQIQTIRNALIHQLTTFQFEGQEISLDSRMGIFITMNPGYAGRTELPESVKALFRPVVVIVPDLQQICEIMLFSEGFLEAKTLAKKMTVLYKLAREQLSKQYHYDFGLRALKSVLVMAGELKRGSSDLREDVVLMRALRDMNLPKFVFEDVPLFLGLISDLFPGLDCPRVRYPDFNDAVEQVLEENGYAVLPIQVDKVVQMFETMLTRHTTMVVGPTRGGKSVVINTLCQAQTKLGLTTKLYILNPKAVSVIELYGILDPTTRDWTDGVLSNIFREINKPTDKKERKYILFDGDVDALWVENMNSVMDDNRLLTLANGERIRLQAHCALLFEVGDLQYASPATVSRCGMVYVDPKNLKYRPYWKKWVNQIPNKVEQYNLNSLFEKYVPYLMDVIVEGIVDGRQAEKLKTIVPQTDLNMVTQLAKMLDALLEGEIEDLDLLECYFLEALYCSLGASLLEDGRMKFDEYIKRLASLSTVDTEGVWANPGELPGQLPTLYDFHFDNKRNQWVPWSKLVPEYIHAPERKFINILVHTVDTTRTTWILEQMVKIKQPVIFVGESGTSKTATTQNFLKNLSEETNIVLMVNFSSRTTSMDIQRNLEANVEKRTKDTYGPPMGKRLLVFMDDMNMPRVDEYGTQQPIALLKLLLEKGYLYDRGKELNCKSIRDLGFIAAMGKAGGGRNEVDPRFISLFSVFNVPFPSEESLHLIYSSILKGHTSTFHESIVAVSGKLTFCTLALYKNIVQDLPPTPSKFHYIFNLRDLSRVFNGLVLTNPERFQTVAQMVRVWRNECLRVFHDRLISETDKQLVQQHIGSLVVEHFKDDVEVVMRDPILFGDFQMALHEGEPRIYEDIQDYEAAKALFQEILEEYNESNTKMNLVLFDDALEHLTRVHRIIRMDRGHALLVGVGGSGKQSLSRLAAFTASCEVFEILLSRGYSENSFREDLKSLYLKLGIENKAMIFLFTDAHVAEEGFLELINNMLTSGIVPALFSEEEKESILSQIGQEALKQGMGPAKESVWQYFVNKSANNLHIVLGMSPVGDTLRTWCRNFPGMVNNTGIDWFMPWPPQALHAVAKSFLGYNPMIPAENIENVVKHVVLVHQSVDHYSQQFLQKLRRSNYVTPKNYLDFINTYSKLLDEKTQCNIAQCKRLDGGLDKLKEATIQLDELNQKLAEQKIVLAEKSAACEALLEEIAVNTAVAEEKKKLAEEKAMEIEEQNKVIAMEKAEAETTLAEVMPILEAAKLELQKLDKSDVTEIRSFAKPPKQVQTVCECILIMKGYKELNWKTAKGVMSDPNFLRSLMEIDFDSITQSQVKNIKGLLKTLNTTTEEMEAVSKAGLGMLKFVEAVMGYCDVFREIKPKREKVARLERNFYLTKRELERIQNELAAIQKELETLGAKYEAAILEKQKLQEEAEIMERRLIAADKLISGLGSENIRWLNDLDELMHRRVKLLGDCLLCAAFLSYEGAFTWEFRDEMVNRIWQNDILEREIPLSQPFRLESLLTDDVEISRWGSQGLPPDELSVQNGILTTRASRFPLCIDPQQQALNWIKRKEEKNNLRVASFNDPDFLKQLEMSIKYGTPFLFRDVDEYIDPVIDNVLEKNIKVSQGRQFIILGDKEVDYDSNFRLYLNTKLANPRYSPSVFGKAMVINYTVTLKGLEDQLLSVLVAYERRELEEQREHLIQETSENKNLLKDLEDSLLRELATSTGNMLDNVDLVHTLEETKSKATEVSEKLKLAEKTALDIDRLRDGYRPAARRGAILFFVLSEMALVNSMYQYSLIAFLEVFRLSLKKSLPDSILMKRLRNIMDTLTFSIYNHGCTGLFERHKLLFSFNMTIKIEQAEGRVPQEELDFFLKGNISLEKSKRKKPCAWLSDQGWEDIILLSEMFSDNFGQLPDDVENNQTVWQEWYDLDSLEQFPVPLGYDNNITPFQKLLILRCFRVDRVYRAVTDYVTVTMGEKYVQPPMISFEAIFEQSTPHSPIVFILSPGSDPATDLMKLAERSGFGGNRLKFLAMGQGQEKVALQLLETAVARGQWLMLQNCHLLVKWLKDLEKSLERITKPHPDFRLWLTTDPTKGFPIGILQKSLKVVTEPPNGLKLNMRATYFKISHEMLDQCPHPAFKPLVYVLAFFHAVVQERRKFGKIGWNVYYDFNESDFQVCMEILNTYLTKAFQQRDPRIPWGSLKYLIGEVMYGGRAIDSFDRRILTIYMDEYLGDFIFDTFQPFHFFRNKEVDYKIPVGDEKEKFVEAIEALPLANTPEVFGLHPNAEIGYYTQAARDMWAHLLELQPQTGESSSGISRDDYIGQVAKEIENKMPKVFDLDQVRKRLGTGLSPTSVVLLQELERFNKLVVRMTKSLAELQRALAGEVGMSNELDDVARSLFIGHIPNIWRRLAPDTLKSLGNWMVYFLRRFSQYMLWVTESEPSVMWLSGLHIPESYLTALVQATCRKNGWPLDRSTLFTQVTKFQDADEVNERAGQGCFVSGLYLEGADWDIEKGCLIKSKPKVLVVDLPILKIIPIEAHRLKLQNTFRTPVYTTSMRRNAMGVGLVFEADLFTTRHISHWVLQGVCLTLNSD

Tests used:
Assay in all cases: log2 fold change, soluble protein after heating vs DMSO (PISA); higher = thermal stabilisation; K562 lysate, 10 uM; active = over 0.2 and 3.5 SD of the protein, either way, in both replicates (recomputed)
lapatinib = compound: CS(=O)(=O)CCNCc1ccc(-c2ccc3ncnc(Nc4ccc(OCc5cccc(F)c5)c(Cl)c4)c3c2)o1 [lapatinib]
Summary of the method: (§1)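 K562 pellets were dounce-homogenised in PBS pH 7.4 containing 1 mM MgCl2, and the crude extract, at 1 mg/mL protein, was exposed to 10 μM compound for 30 min. Aliquots were heated for 3 min across 48°C-58°C, pooled, brought to 0.5% NP-40 at 4°C and spun at 21,000xg for 90 min, with the supernatant taken as soluble protein. TMTpro 16plex LC-MS/MS with equalised channel sums quantified that protein. Values are log-two fold changes in thermal stability relative to solvent controls, taken from duplicates.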

pictilisib = compound: CS(=O)(=O)N1CCN(Cc2cc3nc(-c4cccc5[nH]ncc45)nc(N4CCOCC4)c3s2)CC1 [pictilisib]
Summary of the method: as §1

crizotinib = compound: C[C@@H](Oc1cc(-c2cnn(C3CCNCC3)c2)cnc1N)c1c(Cl)ccc(F)c1Cl [crizotinib]
Summary of the method: as §1

[1] = compound: C[C@H](C1=CC=C(C=C1)C(=O)NC2=C3C=CNC3=NC=C2)N
Summary of the method: as §1

duvelisib = compound: C[C@H](Nc1ncnc2nc[nH]c12)c1cc2cccc(Cl)c2c(=O)n1-c1ccccc1 [duvelisib]
Summary of the method: as §1

gandotinib = compound: Cc1cc(Nc2cc(CN3CCOCC3)c3nc(C)c(Cc4ccc(Cl)cc4F)n3n2)n[nH]1 [gandotinib]
Summary of the method: as §1

tozasertib = compound: Cc1cc(Nc2cc(N3CCN(C)CC3)nc(Sc3ccc(NC(=O)C4CC4)cc3)n2)n[nH]1 [tozasertib]
Summary of the method: as §1

doramapimod = compound: Cc1ccc(-n2nc(C(C)(C)C)cc2NC(=O)Nc2ccc(OCCN3CCOCC3)c3ccccc23)cc1 [doramapimod]
Summary of the method: as §1

bafetinib = compound: Cc1ccc(NC(=O)c2ccc(CN3CC[C@H](N(C)C)C3)c(C(F)(F)F)c2)cc1Nc1nccc(-c2cncnc2)n1 [bafetinib]
Summary of the method: as §1

[2] = compound: Cc1cccc(CC(=O)N2CCc3c2ccc(-c2cn(C)c4ncnc(N)c24)c3F)n1
Summary of the method: as §1

nilotinib = compound: Cc1cn(-c2cc(NC(=O)c3ccc(C)c(Nc4nccc(-c5cccnc5)n4)c3)cc(C(F)(F)F)c2)cn1 [nilotinib]
Summary of the method: as §1

[3] = compound: Cc1nc(Nc2n[nH]c3c2CN(C(=O)N[C@H](CN(C)C)c2ccccc2)C3(C)C)c2sccc2n1
Summary of the method: as §1

dasatinib = compound: Cc1nc(Nc2ncc(C(=O)Nc3c(C)cccc3Cl)s2)cc(N2CCN(CCO)CC2)n1 [dasatinib]
Summary of the method: as §1

[4] = compound: Cc1ncc(-c2ccnc(Nc3ccc(S(C)(=O)=O)cc3)n2)n1C(C)C
Summary of the method: as §1

[5] = compound: Cn1cc(-c2ccc3c(c2)CCN3C(=O)Cc2cccc(C(F)(F)F)c2)c2c(N)ncnc21
Summary of the method: as §1

quisinostat = compound: Cn1cc(CNCC2CCN(c3ncc(C(=O)NO)cn3)CC2)c2ccccc21 [quisinostat]
Summary of the method: as §1

tipifarnib = compound: Cn1cncc1[C@@](N)(c1ccc(Cl)cc1)c1ccc2c(c1)c(-c1cccc(Cl)c1)cc(=O)n2C [tipifarnib]
Summary of the method: as §1

[6] = compound: NC(=O)Nc1cc(-c2cccc(F)c2)sc1C(=O)N[C@H]1CCCNC1
Summary of the method: as §1

[7] = compound: NC(=O)c1cnc(N[C@@H]2CCCC[C@@H]2N)nc1Nc1cccc(-n2nccn2)c1
Summary of the method: as §1

[8] = compound: NC1(c2ccc(-c3nc4ccn5c(=O)[nH]nc5c4cc3-c3ccccc3)cc2)CCC1
Summary of the method: as §1

Measured: log2 fold change

DNAJC12 (UniProt Q9UKB3)
inactive: lapatinib 0.05 | pictilisib 0.002 | crizotinib 0.025 | [1] -0.026 | duvelisib -0.016 | gandotinib 0.145 | tozasertib 0.058 | doramapimod 0.034 | bafetinib -0.002 | [2] -0.018 | nilotinib -0.048 | [3] 0.029 | dasatinib 0.031 | [4] -0.018 | [5] 0 | quisinostat -0.007 | tipifarnib -0.066 | [6] -0.034 | [7] 0.008 | [8] -0.001

DOCK9 isoform 4 (UniProt Q9BZ29)
inactive: lapatinib 0.007 | pictilisib 0.02 | crizotinib -0.006 | [1] -0.066 | duvelisib -0.039 | gandotinib -0.042 | tozasertib 0.048 | doramapimod 0.01 | bafetinib -0.033 | [2] 0.013 | nilotinib 0.011 | [3] -0.036 | dasatinib 0.029 | [4] 0.015 | [5] 0.023 | quisinostat -0.039 | tipifarnib 0.035 | [6] 0.028 | [7] 0.007 | [8] -0.004

DMTF1 (UniProt Q9Y222)
inactive: lapatinib -0.118 | pictilisib -0.052 | crizotinib 0.012 | [1] -0.044 | duvelisib 0.134 | gandotinib 0.092 | tozasertib -0.021 | doramapimod 0.07 | bafetinib 0.036 | [2] 0.132 | nilotinib 0.049 | [3] 0.028 | dasatinib 0.04 | [4] 0.039 | [5] -0.061 | quisinostat -0.127 | tipifarnib 0.055 | [6] 0.004 | [7] -0.006 | [8] 0.045

DHRS3 (UniProt O75911)
active: dasatinib 0.23
inactive: lapatinib 0.02 | pictilisib -0.051 | crizotinib -0.024 | [1] -0.044 | duvelisib -0.025 | gandotinib 0.059 | tozasertib -0.043 | doramapimod 0.035 | bafetinib -0.032 | [2] 0.011 | nilotinib 0.007 | [3] 0.005 | [4] -0.028 | [5] 0.024 | quisinostat -0.031 | tipifarnib 0.06 | [6] 0.019 | [7] -0.078 | [8] -0.044

DNAJA1 (UniProt P31689)
inactive: lapatinib -0.011 | pictilisib 0.051 | crizotinib -0.024 | [1] -0.139 | duvelisib 0.021 | gandotinib 0.075 | tozasertib -0.025 | doramapimod 0.013 | bafetinib -0.04 | [2] 0.049 | nilotinib 0.009 | [3] 0.012 | dasatinib -0.032 | [4] 0 | [5] -0.024 | quisinostat -0.075 | tipifarnib -0.047 | [6] 0.014 | [7] -0.029 | [8] -0.014

DNAJC11 (UniProt Q9NVH1)
inactive: lapatinib -0.024 | pictilisib 0.001 | crizotinib -0.003 | [1] 0.009 | duvelisib 0.01 | gandotinib -0.051 | tozasertib 0.034 | doramapimod -0.019 | bafetinib 0.009 | [2] 0.03 | nilotinib 0.005 | [3] -0.018 | dasatinib -0.018 | [4] -0.015 | [5] 0.011 | quisinostat 0.039 | tipifarnib 0.015 | [6] -0.02 | [7] 0.013 | [8] -0.019

DMTN (UniProt Q08495)
inactive: lapatinib -0.017 | pictilisib -0.012 | crizotinib 0.048 | [1] 0.02 | duvelisib 0.002 | gandotinib 0.028 | tozasertib 0.032 | doramapimod 0.001 | bafetinib -0.009 | [2] -0.02 | nilotinib 0.003 | [3] 0.014 | dasatinib 0.031 | [4] 0.001 | [5] 0.017 | quisinostat 0.029 | tipifarnib 0.004 | [6] -0.015 | [7] -0.002 | [8] -0.01

DIS3L2 (UniProt Q8IYB7)
inactive: lapatinib 0.007 | pictilisib -0.107 | crizotinib 0.025 | [1] 0.013 | duvelisib -0.036 | gandotinib -0.03 | tozasertib 0.003 | doramapimod 0.075 | bafetinib -0.033 | [2] 0.059 | nilotinib 0.002 | [3] 0.037 | dasatinib -0.066 | [4] -0.015 | [5] -0.001 | quisinostat 0.067 | tipifarnib 0.022 | [6] 0.011 | [7] 0.001 | [8] -0.01

DOLPP1 (UniProt Q86YN1)
inactive: lapatinib 0.034 | pictilisib 0.082 | crizotinib -0.055 | [1] 0.046 | duvelisib -0.029 | gandotinib -0.028 | tozasertib -0.022 | doramapimod -0.004 | bafetinib -0.124 | [2] 0.168 | nilotinib -0.111 | [3] 0.023 | dasatinib 0.084 | [4] -0.087 | [5] -0.01 | quisinostat -0.043 | tipifarnib -0.074 | [6] -0.024 | [7] -0.021 | [8] -0.044

DNAJC6 isoform 2 (UniProt O75061)
inactive: lapatinib 0.018 | pictilisib 0.016 | crizotinib 0.054 | [1] -0.046 | duvelisib -0.027 | gandotinib 0.137 | tozasertib -0.043 | doramapimod 0.048 | bafetinib -0.032 | [2] 0.04 | nilotinib 0.001 | [3] 0.005 | dasatinib 0.024 | [4] 0.015 | [5] -0.024 | quisinostat -0.02 | tipifarnib -0.007 | [6] 0.008 | [7] -0.047 | [8] -0.011

DHX29 (UniProt Q7Z478)
inactive: lapatinib -0.018 | pictilisib 0.016 | crizotinib 0.005 | [1] -0.033 | duvelisib -0.008 | gandotinib -0.041 | tozasertib 0.016 | doramapimod 0.028 | bafetinib -0.064 | [2] 0.022 | nilotinib -0.011 | [3] 0.027 | dasatinib 0.003 | [4] -0.01 | [5] 0.008 | quisinostat 0.019 | tipifarnib 0.02 | [6] -0.014 | [7] 0.013 | [8] -0.032

DFFB (UniProt O76075)
inactive: lapatinib 0.003 | pictilisib -0.016 | crizotinib 0.023 | [1] 0.003 | duvelisib -0.008 | gandotinib 0.015 | tozasertib 0.049 | doramapimod -0.07 | bafetinib -0.028 | [2] -0.021 | nilotinib 0.192 | [3] -0.062 | dasatinib 0.008 | [4] 0.155 | [5] 0.012 | quisinostat 0.038 | tipifarnib -0.013 | [6] -0.049 | [7] 0.026 | [8] -0.047

DNAH10 (UniProt Q8IVF4)
inactive: lapatinib -0.075 | pictilisib 0.066 | crizotinib -0.136 | duvelisib 0.044 | gandotinib 0.172 | tozasertib -0.024 | doramapimod 0.076 | bafetinib -0.08 | [2] 0.196 | nilotinib 0.017 | [3] 0.014 | dasatinib -0.026 | [4] -0.024 | [5] -0.026 | quisinostat -0.251 | tipifarnib 0.025 | [6] 0.012 | [7] -0.017 | [8] -0.072
active: [1] -0.553

DOCK10 (UniProt Q96BY6)
inactive: lapatinib -0.025 | pictilisib -0.024 | crizotinib -0.461 | duvelisib 0.003 | gandotinib 0.231 | tozasertib 0 | doramapimod 0.137 | bafetinib -0.226 | [2] 0.379 | nilotinib -0.046 | [3] -0.008 | dasatinib -0.086 | [4] -0.081 | [5] 0.025 | tipifarnib -0.129 | [6] -0.011 | [7] 0.029 | [8] -0.086
active: [1] -0.641 | quisinostat -0.636

DHX35 (UniProt Q9H5Z1)
inactive: lapatinib 0.061 | pictilisib -0.002 | crizotinib -0.014 | [1] 0.005 | duvelisib -0.034 | gandotinib -0.054 | tozasertib 0.058 | doramapimod -0.295 | bafetinib -0.079 | [2] -0.14 | nilotinib 0.08 | [3] -0.029 | dasatinib -0.14 | [4] -0.005 | [5] 0.003 | quisinostat -0.338 | tipifarnib 0.04 | [6] 0.217 | [7] 0.169 | [8] 0.149

Quoted at random: 2 records from the list.
DNAH10 (UniProt Q8IVF4)
inactive: lapatinib -0.075 | pictilisib 0.066 | crizotinib -0.136 | duvelisib 0.044 | gandotinib 0.172 | tozasertib -0.024 | doramapimod 0.076 | bafetinib -0.08 | [2] 0.196 | nilotinib 0.017 | [3] 0.014 | dasatinib -0.026 | [4] -0.024 | [5] -0.026 | quisinostat -0.251 | tipifarnib 0.025 | [6] 0.012 | [7] -0.017 | [8] -0.072
active: [1] -0.553

DFFB (UniProt O76075)
inactive: lapatinib 0.003 | pictilisib -0.016 | crizotinib 0.023 | [1] 0.003 | duvelisib -0.008 | gandotinib 0.015 | tozasertib 0.049 | doramapimod -0.07 | bafetinib -0.028 | [2] -0.021 | nilotinib 0.192 | [3] -0.062 | dasatinib 0.008 | [4] 0.155 | [5] 0.012 | quisinostat 0.038 | tipifarnib -0.013 | [6] -0.049 | [7] 0.026 | [8] -0.047

Going on with the list:

DHRS2 (UniProt Q13268)
inactive: lapatinib 0.001 | pictilisib 0.015 | crizotinib 0.039 | [1] 0.082 | duvelisib -0.001 | gandotinib -0.02 | tozasertib -0.008 | doramapimod -0.015 | bafetinib -0.102 | [2] -0.123 | nilotinib -0.007 | [3] 0.006 | dasatinib 0.011 | [4] -0.055 | [5] 0.037 | quisinostat 0.051 | tipifarnib 0.081 | [6] -0.025 | [7] -0.043 | [8] 0.028
